For four molecules, binding results are on record in publication PMC10209169.

In assay [1] the target is mCherry-Rab5 DN (S43N). In words: co-IP; Rab5 co-IP from HUVEC stably transduced with Rab5 WT or Rab5 DN, PRA for the indicated times.
The target of assay [2] is Rab5 (mouse) (mouse (endogenous in C57/Bl6 kidney)). Nature of the assay: co-IP; Rab5 co-IP from kidneys of C57/Bl6 or Rubicon-/- mice 24 h after 750 μg MOPC or anti-H-2^b Ab (n = 3 per group).

No constants are given. Whether binding was seen depends on the method and setting. In cells and extracts the contact can be indirect. For some of these results: Binding calls can cover weak binding; strength is not graded here.

B1: RNF34 (protein, UniProt Q969K3 1-372)
chain: MKAGATSMWASCCGLLNEVMGTGAVRGQQSAFAGATGPFRFTPNPEFSTYPPAATEGPNIVCKACGLSFSVFRKKHVCCDCKKDFCSVCSVLQENLRRCSTCHLLQETAFQRPQLMRLKVKDLRQYLILRNIPIDTCREKEDLVDLVLCHHGLGSEDDMDTSSLNSSRSQTSSFFTRSFFSNYTAPSATMSSFQGELMDGDQTSRSGVPAQVQSEITSANTEDDDDDDDEDDDDEEENAEDRNPGLSKERVRASLSDLSSLDDVEGMSVRQLKEILARNFVNYSGCCEKWELVEKVNRLYKENEENQKSYGERLQLQDEEDDSLCRICMDAVIDCVLLECGHMVTCTKCGKRMSECPICRQYVVRAVHVFKS
For the molecule B1, in assay [1], the binding result is on record as “no binding”.

B2: Rubicon (protein, UniProt Q92622 1-972)
chain: MRPEGAGMELGGGEERLPEESRREHWQLLGNLKTTVEGLVSTNSPNVWSKYGGLERLCRDMQSILYHGLIRDQACRRQTDYWQFVKDIRWLSPHSALHVEKFISVHENDQSSADGASERAVAELWLQHSLQYHCLSAQLRPLLGDRQYIRKFYTDAAFLLSDAHVTAMLQCLEAVEQNNPRLLAQIDASMFARKHESPLLVTKSQSLTALPSSTYTPPNSYAQHSYFGSFSSLHQSVPNNGSERRSTSFPLSGPPRKPQESRGHVSPAEDQTIQAPPVSVSALARDSPLTPNEMSSSTLTSPIEASWVSSQNDSPGDASEGPEYLAIGNLDPRGRTASCQSHSSNAESSSSNLFSSSSSQKPDSAASSLGDQEGGGESQLSSVLRRSSFSEGQTLTVTSGAKKSHIRSHSDTSIASRGAPESCNDKAKLRGPLPYSGQSSEVSTPSSLYMEYEGGRYLCSGEGMFRRPSEGQSLISYLSEQDFGSCADLEKENAHFSISESLIAAIELMKCNMMSQCLEEEEVEEEDSDREIQELKQKIRLRRQQIRTKNLLPMYQEAEHGSFRVTSSSSQFSSRDSAQLSDSGSADEVDEFEIQDADIRRNTASSSKSFVSSQSFSHCFLHSTSAEAVAMGLLKQFEGMQLPAASELEWLVPEHDAPQKLLPIPDSLPISPDDGQHADIYKLRIRVRGNLEWAPPRPQIIFNVHPAPTRKIAVAKQNYRCAGCGIRTDPDYIKRLRYCEYLGKYFCQCCHENAQMAIPSRVLRKWDFSKYYVSNFSKDLLIKIWNDPLFNVQDINSALYRKVKLLNQVRLLRVQLCHMKNMFKTCRLAKELLDSFDTVPGHLTEDLHLYSLNDLTATRKGELGPRLAELTRAGATHVERCMLCQAKGFICEFCQNEDDIIFPFELHKCRTCEECKACYHKACFKSGSCPRCERLQARREALARQSLESYLSDYEEEPAEALALEAAVLEAT
Take B2: in assay [1], the binding result is listed as “no binding”.

B3: FliI (mouse) (protein, UniProt Q9JJ28 1-1271)
chain: MEATGVLPFVRGVDLSGNDFKGGYFPENVKAMTSLRWLKLNRTGLCYLPEELAALQKLEHLSVSHNHLTTLHGELSSLPSLRAIVARANSLKNSGVPDDIFKLDDLSVLDLSHNQLTECPRELENAKNMLVLNLSHNGIDSIPNQLFINLTDLLYLDLSENRLESLPPQMRRLVHLQTLVLNGNPLLHAQLRQLPAMMALQTLHLRNTQRTQSNLPTSLEGLSNLSDVDLSCNDLTRVPECLYTLPSLRRLNLSSNQIAELSLCIDQWVHLETLNLSRNQLTSLPSAICKLTKLKKLYLNSNKLDFDGLPSGIGKLTSLEEFMAANNNLELIPESLCRCPKLKKLVLNKNRLVTLPEAIHFLTEIQVLDVRENPSLVMPPKPADRTAEWYNIDFSLQNQLRLAGASPATVAAAAAVGSGSKDPLARKMRLRRRKDSAQDVQAKQVLKGMSDVAQEKNKNQEESIDARAPGGKVRRWDQGLEKPRLDYSEFFTEDVGQLPGLTIWQIENFVPVLVEEAFHGKFYEADCYIVLKTFLDDSGSLNWEIYYWIGGEATLDKKACSAIHAVNLRNYLGAECRTVREEMGDESEEFLQVFDNDISYIEGGTASGFYTVEDTHYVTRMYRVYGKKNIKLEPVPLKGSSLDPRFVFLLDQGLDIYVWRGAQATLSNTTKARLFAEKINKNERKGKAEITLLVQGQEPPGFWDVLGGEPSEIKNHVPDDFWPPQPKLYKVGLGLGYLELPQINYKLSVEHKKRPKVELMPGMRLLQSLLDTRCVYILDCWSDVFIWLGRKSPRLVRAAALKLGQELCGMLHRPRHTVVSRSLEGTEAQVFKAKFKNWDDVLTVDYTRNAEAVLQGQGLSGKVKRDTEKTDQMKADLTALFLPRQPPMPLAEAEQLMEEWNEDLDGMEGFVLEGRKFTRLPEEEFGHFYTQDCYVFLCRYWVPVEYEEEEKTEDKEGKASAEAREGEEAAAEAEEKQPEEDFQCIVYFWQGREASNMGWLTFTFSLQKKFESLFPGKLEVVRMTQQQENPKFLSHFKRKFIIHRGKRKVTQGTLQPTLYQIRTNGSALCTRCIQINTDSSLLNSEFCFILKVPFESEDNQGIVYAWVGRASDPDEAKLAEDILNTMFDASYSKQVINEGEEPENFFWVGIGAQKPYDDDAEYMKHTRLFRCSNEKGYFAVTEKCSDFCQDDLADDDIMLLDNGQEVYMWVGTQTSQVEIKLSLKACQVYIQHTRSKEHERPRRLRLVRKGNEQRAFTRCFHAWSTFRQAPA
As to B3, the binding result in assay [2] is “binds”.

B4: Rubicon (mouse) (protein, UniProt Q80U62 1-956)
chain: MRPEGAGMDLGGGDGERLLEKSRREHWQLLGNLKTTVEGLVSANCPNVWSKYGGLERLCRDMQNILYHGLIHDQVCCRQADYWQFVKDIRWLSPHSALHVEKFISLHESDQSDTDSVSERAVAELWLQHSLQCHCLSAQLRPLLGDRQYIRKFYTETAFLLSDAHVTAMLQCLEAVEQNNPRLLAQIDASMFARKQESPLLVTKSQSLTALPGSTYTPPASYAQHSYFGSSSSLQSMPQSSHSSERRSTSFSLSGPSWQPQEDRECLSPAETQTTPAPLPSDSTLAQDSPLTAQEMSDSTLTSPLEASWVSSQNDSPSDVSEGPEYLAIGNPAPHGRTASCESHSSNGESSSSHLFSSSSSQKLESAASSLGDQEEGRQSQAGSVLRRSSFSEGQTAPVASGTKKSHIRSHSDTNIASRGAAGGPRNITIIVEDPIAEGGQYLCSGEGMFRRPSEGQSLISYLSEQDFGSCADLEKENAHFSISESLIAAIELMKCNMMSQCLEEEEVEEEDSDREIQELKQKIRLRRQQIRTKNLLPAYRETENGSFRVTSSSSQFSSRDSTQLSESGSAEDADDLEIQDADIRRSAVSNGKSSFSQNLSHCFLHSTSAEAVAMGLLKQFEGMQLPAASELEWLVPEHDAPQKLLPIPDSLPISPDDGQHADIYKLRIRVRGNLEWAPPRPQIIFNVHPAPTRKIAVAKQNYRCAGCGIRTDPDYIKRLRYCEYLGKYFCQCCHENAQMVVPSRILRKWDFSKYYVSNFSKDLLLKIWNDPLFNVQDINSALYRKVKLLNQVRLLRVQLYHMKNMFKTCRLAKELLDSFDVVPGHLTEDLHLYSLSDLTATKKGELGPRLAELTRAGAAHVERCMLCQAKGFICEFCQNEEDVIFPFELHKCRTCEECKACYHKTCFKSGRCPRCERLQARRELLAKQSLESYLSDYEEEPTEALALEATVLETT
On to B4, for which the binding entry in assay [2] was “binds”.
